PubChem BioAssay AID504808 | Drosophila RNAi Screening Center | 2011
Purpose: 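Genes whose loss lifts activity of an E2F-responsive reporter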 (primary screen). Cells: Drosophila S2 cells. Knock-down reagent: long dsRNA against Drosophila genes. Detection: 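Firefly luciferase driven by E2F sites, normalised to Renilla luciferase on the same minimal promoter, measured by plate reader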. Direction: E2F firefly: higher = more E2F reporter activity; Renilla normaliser: higher = more normaliser reporter signal. Hit rule: 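a knock-down counted as active when the firefly/Renilla E2F signal rose above 50%, a threshold chosen arbitrarily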.
The deposit covers about 21,000 reagents; below is an unselected part of those with a known target gene and a result. Of all reagents, 18 (0.084%) were called active. 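Raw counts without plate normalisation, one of two replicates; the ratio scores behind the calls were not deposited.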 Unmarked entries are inactive. Names joined by + are all predicted targets of the reagent. Not stated in the record: the amount of reagent, the time to read-out.

| target gene | DRSC id | E2F firefly, rep 1 | Renilla normaliser, rep 1 |
| --- | --- | --- | --- |
| mtrm | DRSC10322 | 65036 | 3172 |
| CG13148 | DRSC06275 | 92147 | 4238 |
| CG4572 | DRSC15603 | 86087 | 4323 |
| Cp7Fc | DRSC18035 | 1.08e5 | 5914 |
| SelG | DRSC19808 | 8691 | 832 |
| smal | DRSC02318 | 1.58e5 | 5610 |
| smal | DRSC02319 | 1.51e5 | 5318 |
| smal | DRSC02320 | 1.51e5 | 5011 |
| smal | DRSC02504 | 1.41e5 | 5267 |
| rumi | DRSC15177 | 72536 | 3838 |
| CG9459 | DRSC16496 | 1.39e5 | 6430 |
| sbb | DRSC05723 | 1.65e5 | 6408 |
| sbb | DRSC07676 | 1.67e5 | 5888 |
| Nha1 | DRSC02109 | 95869 | 3748 |
| CG33791 + CG18170 | DRSC08523 | 94253 | 4057 |
| CG33791 + CG18170 | DRSC08601 | 91958 | 3921 |
| Pitslre | DRSC11874 | 73737 | 4042 |
| CG34133 | DRSC16319 | 1793 | 1020 |
| Lgr1 | DRSC16675 | 1.38e5 | 9097 |
| Tm1 | DRSC13082 | 82625 | 2643 |
| Tm1 | DRSC13083 | 84413 | 4729 |
| Tm1 | DRSC16886 | 65980 | 3730 |
| Sec3 | DRSC10384 | 74135 | 3922 |
| vih | DRSC09778 | 89568 | 4680 |
| Naxe | DRSC18251 | 1.19e5 | 4925 |
| Fbl6 | DRSC06335 | 2805 | 216 |
| CG5861 | DRSC02907 | 81096 | 3107 |
| CG6686 | DRSC02979 | 67207 | 204 |
| cg | DRSC07650 | 69271 | 3174 |
| Arl5 | DRSC10785 | 75653 | 3346 |
| Dera | DRSC07207 | 2653 | 208 |
| Klp3A | DRSC18676 | 1819 | 948 |
| CG43367 | DRSC08299 | 1.01e5 | 4523 |
| CG43367 | DRSC08301 | 97190 | 4882 |
| CG43367 | DRSC08309 | 92377 | 3719 |
